Source: ChEMBL document CHEMBL4513145, “CO-ADD screening of Biotechnology Research Centre (C.R.B.t) (Algeria) compounds”
“And” between values parts separate entries of the source, which are not always exact repeats. Equal entries are not always repeated. Some of the results follow. Entries with a potency or affinity are not part of this list.

Test system: Acinetobacter baumannii
Details: Concentration 32 ug.mL-1, ASSAY_TEST Inhibition of Bacterial Growth, detection method Absorption (OD600), MEDIA CAMHB, plate type 384well, NBS, CORNING #3640, time 18 hr

Row | Structure (SMILES) | Inhibition [%] | Inhibition (32 ug/mL)
1 | CC1CN(C(=O)OCc2ccccc2)OC1O (stereo unspecified) | 8.1 | 
2 | O=C(OCc1ccccc1)N1CC(Cc2ccccc2)C(O)O1 (stereo unspecified) | 13.82 | 
3 | CC1CN(S(=O)(=O)c2ccc([N+](=O)[O-])cc2)N(C(=O)OC(C)(C)C)C1O (stereo unspecified) | 1.8 | 
4 | CCCCCCCC1CN(S(=O)(=O)c2ccc(C)cc2)N(C(=O)OC(C)(C)C)C1=O (stereo unspecified) | 6.44 | 
5 | O=C(OCc1ccccc1)N1OC(O)C2CCCCC21 (stereo unspecified) | 5.83 | 
6 | CC1C(O)N(C(=O)OC(C)(C)C)N(S(=O)(=O)c2ccc([N+](=O)[O-])cc2)C1C (stereo unspecified) | -1.71 | 
7 | CC(C)(C)OC(=O)N1C(O)C2CCCC2N1S(=O)(=O)c1ccc([N+](=O)[O-])cc1 (stereo unspecified) | 1.22 | 
8 | CC(C)(C)OC(=O)N1C(O)C(Cc2ccccc2)CN1S(=O)(=O)c1ccc([N+](=O)[O-])cc1 (stereo unspecified) |  | 13.13% and 12.98% and 9.69%
9 | CC1CN(S(=O)(=O)c2ccc([N+](=O)[O-])cc2)N(C(=O)OC(C)(C)C)C1=O (stereo unspecified) |  | 12.36% and 6.82% and 9.25%
10 | CCCCCCCC1CN(S(=O)(=O)c2ccc(C)cc2)N(C(=O)OC(C)(C)C)C1O (stereo unspecified) | 10.38 | 
11 | CCCCCCCC1CN(S(=O)(=O)c2ccc(C)cc2)N(S(=O)(=O)c2ccc(C)cc2)C1O (stereo unspecified) | 7.63 | 
12 | Cc1ccc(S(=O)(=O)N2CC(C)C(=O)N2S(=O)(=O)c2ccc(C)cc2)cc1 (stereo unspecified) |  | 3.83% and 8.89%
13 | O=C1ON(C(=O)OCc2ccccc2)CC1Cc1ccccc1 (stereo unspecified) |  | 9.32% and 10.71%
14 | Cc1ccc(S(=O)(=O)N2CC(Cc3ccccc3)C(=O)N2S(=O)(=O)c2ccc(C)cc2)cc1 (stereo unspecified) |  | 8.79% and 11.99%
15 | CC(C)(C)OC(=O)N1C(=O)C(Cc2ccccc2)CN1S(=O)(=O)c1ccc([N+](=O)[O-])cc1 (stereo unspecified) |  | 13.37% and 4.76% and -0.21%
16 | CC1CN(C(=O)OCc2ccccc2)OC1=O (stereo unspecified) |  | 8.73% and 15.25% and 12.63%

Two entries from above, field by field:
CC1CN(S(=O)(=O)c2ccc([N+](=O)[O-])cc2)N(C(=O)OC(C)(C)C)C1O (stereo unspecified)
  Inhibition [%]: 1.8
CCCCCCCC1CN(S(=O)(=O)c2ccc(C)cc2)N(C(=O)OC(C)(C)C)C1=O (stereo unspecified)
  Inhibition [%]: 6.44
